According to paper PMC2648312:
These are yes or no findings as the source states them, for the method shown. In cells and extracts the contact can be indirect. Some results given as binding are weak or reduced against the parent protein; the word gives no strength.

Protein sequences, listed by entry. Tags and fused reporters are not part of them.
UniProt P11309: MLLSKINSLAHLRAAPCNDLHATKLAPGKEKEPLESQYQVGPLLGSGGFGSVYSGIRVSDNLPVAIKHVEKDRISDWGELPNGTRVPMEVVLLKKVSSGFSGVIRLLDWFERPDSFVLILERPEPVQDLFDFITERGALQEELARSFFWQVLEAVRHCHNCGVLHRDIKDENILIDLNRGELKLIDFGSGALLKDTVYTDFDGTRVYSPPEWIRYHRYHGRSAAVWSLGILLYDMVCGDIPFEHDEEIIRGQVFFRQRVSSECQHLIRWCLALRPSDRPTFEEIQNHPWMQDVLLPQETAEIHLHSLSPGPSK
UniProt Q9QR71: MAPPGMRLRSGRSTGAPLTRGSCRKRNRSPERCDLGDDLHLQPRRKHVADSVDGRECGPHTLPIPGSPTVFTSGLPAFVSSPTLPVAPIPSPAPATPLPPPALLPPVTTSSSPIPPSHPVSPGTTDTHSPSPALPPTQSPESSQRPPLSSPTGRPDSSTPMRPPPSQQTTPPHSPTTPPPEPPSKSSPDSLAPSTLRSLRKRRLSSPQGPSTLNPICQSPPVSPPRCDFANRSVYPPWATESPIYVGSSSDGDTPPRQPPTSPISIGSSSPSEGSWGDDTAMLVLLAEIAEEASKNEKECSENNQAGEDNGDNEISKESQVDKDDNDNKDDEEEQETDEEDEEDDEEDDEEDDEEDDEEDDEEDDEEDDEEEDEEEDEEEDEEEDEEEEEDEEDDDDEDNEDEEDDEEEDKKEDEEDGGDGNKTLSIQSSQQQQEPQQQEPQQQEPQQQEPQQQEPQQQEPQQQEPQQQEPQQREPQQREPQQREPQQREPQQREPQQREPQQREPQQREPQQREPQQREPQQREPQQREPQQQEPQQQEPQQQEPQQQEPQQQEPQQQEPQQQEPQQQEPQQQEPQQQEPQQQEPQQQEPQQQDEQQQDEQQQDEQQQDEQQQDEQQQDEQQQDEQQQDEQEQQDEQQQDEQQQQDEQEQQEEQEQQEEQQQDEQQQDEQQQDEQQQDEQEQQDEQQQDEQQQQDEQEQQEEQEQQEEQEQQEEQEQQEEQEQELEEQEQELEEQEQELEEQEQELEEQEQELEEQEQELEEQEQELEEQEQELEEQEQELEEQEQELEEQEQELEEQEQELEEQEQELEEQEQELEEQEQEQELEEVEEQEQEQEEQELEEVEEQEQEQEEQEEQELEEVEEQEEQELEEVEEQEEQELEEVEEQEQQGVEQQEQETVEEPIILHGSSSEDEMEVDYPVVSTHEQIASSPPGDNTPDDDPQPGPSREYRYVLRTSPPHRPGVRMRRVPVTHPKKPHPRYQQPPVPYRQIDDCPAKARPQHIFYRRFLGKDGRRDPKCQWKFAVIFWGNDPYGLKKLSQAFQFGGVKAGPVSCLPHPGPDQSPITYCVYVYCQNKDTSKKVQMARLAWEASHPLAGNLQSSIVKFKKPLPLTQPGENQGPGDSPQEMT

Assays:
[1] = molecular target: V5-tagged Pim-1 (wild type) (human) (UniProt P11309); assay: co-IP; 293 cells co-transfected with LANA wt or SS205/206RR and V5-tagged Pim-1 or Pim-3; after 48 h extracts immunoprecipitated with anti-V5; in vitro kinase assay on co-precipitated proteins, filter immunoblotted with anti-LANA and anti-V5
[2] = molecular target: V5-tagged Pim-3 (wild type) (human) (UniProt Q86V86); assay: as above
[3] = molecular target: Pim-1 kinase, endogenous in PEL cells (human (endogenous in BC-3 and BCBL-1)) (UniProt P11309); assay: co-IP; data not shown; PEL cell lines reactivated with NaB (2 mM, 48 h), immunoprecipitation of Pim-1 and Pim-3
[4] = molecular target: Pim-3 kinase, endogenous in PEL cells (human (endogenous in BC-3 and BCBL-1)) (UniProt Q86V86); assay: as above
[5] = molecular target: Pim-1 kinase, endogenous in PEL cells (human (endogenous in BC-3 and BCBL-1)) (UniProt P11309); assay: co-IP; anti-Pim-1 or anti-Pim-3 immunoprecipitation from whole-cell extracts (600 ug; for Pim-1 also 1200 ug) of reactivated PEL cells (BC-3, BCBL-1; TPA 20 ng/ml 48 h; BC-3 also TPA or IFN-gamma 16 h); ELB lysis buffer (150 mM NaCl, 50 mM HEPES pH 7.4, 0.1% Igepal, 5 mM EDTA), 4 C; in vitro kinase assay on co-precipitated proteins, kinase filter immunoblotted with anti-LANA
[6] = molecular target: Pim-3 kinase, endogenous in PEL cells (human (endogenous in BC-3 and BCBL-1)) (UniProt Q86V86); assay: as above

Measured: binding

LANA wild type, expressed from pCDNA3.1-LANA (from UniProt Q9QR71 1-1129)
binds: [1] | [2]

Latency-associated nuclear antigen (LANA), endogenous in KSHV-infected PEL cells (from UniProt Q9QR71 1-1129)
binds: [3] | [4] | [5] | [6]
